Results: patent publication US20130302346A1 (LEXICON PHARMACEUTICALS, published 2013)
No constants are given. Whether binding was seen depends on the method and setting. A result given as binding can be weak or reduced; the word gives no strength. Each block holds one binder with its values, some of them ahead of it.

Target: Cynomolgus monkey NOTUM (cynomolgus monkey)
Assay: ELISA

binding: binds
B1: MAb 2.78 (antibody, V domains shown)
VH: DVQLVESGGGLVQPGGSRKLSCAASGFTFSSFGMHWVRQAPEKGLEWVAYITSGSGAIYYADTVRGRFTISRDTPKNTLFLQMTSLRSEDTAMYYCARSADGLDYWGQGTSVTVSS
VL: DIQMTQSPASLYVSVGETVTITCRASENIYSNLAWYQQKQGKSPQLLVYGATNLADGVPSRFSGSGSGTQYSLKINSLKSEDFGSYYCQHFWGTPFTFGSGTKLEIKR
notes: Mouse monoclonal antibody from Campaign 2 (raised against mouse NOTUM), IgG2b

binding: binds
B2: MAb 2.1029 (antibody, IgG2a, V domains shown)
VH: QVQLKESGPGLVAPSQSLSITCTVSGFSLTSYGVHWVRQPPGKGLEWLGVIWAGGSTNYNSALMSRLSISKDNSKSQVFLKMNSLQTDDTAIYFCARDGDYGTIYAMDYWGQGTSVTVSS
VL: DIQMTQTTSSLSASLGDRVTISCRASQDISNYLNWYQQKPDGTVKLLIYYTSRLHSGVPSRFTGSGSGTDYSLTISNLEQEDIATYFCQQGKTLPRTFGGGTMLEIKR
notes: Mouse monoclonal antibody from Campaign 2, IgG2a
